Some of the results follow. Further columns of the screen follow, without active or inactive calls. Most of these compounds were active or inconclusive in the main read-out, so they are no random draw. Words in brackets tell the shape of the fitted curve; partial curves, single points and poor fits give uncertain potencies.
Assay: qHTS Assay to Find Inhibitors of Chronic Active B-Cell Receptor Signaling
Conditions: ABC-DLBCL IkBa-CBG/CBR reporter, luminescence ratio (green luciferase fused to IkBa over red control in TMD8 lymphoma cells), 4 h
Procedure, shortened: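 TMD8 ABC-DLBCL cells carrying doxycycline-inducible green luciferase fused to IkappaBalpha plus unfused red luciferase were exposed to compounds (up to 46 uM) for 4 hrs at 37C. Activity came from the overlap-corrected green/red luminescence ratio.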

[1] = measured here: CBR red luminescence, cell number
[2] = measured here: IkBa-CBG green luminescence

| Compound | AC50 [1] | AC50 [2] |
| --- | --- | --- |
| CCOC(=O)CNc1c(-c2ccc(O)cc2)nc2ccc(Cl)cn12 | 16.4 µM [falling, partial curve] | – |
| COc1ccc(-n2ncc3c(N4CCN(c5cccc(C)c5)C(C)C4)ncnc32)cc1 (stereo not given) | 5.01 µM [falling, full curve, poor fit] | – |
| Cc1ccc(NC(=O)c2ccc3nc[nH]c3c2)c(O)c1 | 22.4 µM [falling, single point] | – |
| Cc1ccc(C(=O)N/N=C\c2cccn2C)cn1 | 22.4 µM [falling, single point] | – |
| CCOC(=O)c1c(C)n(OC)c2ccc3c(no[n+]3[O-])c12 | 0.517 µM [falling, full curve, poor fit] | – |
| CC1Sc2ccc(S(=O)(=O)N3CCN(c4ccccc4)CC3)cc2NC1=O (stereo not given) | 10 µM [falling, partial curve] | – |
| CCOC(=O)c1cnc2c(c(C)nn2C)c1Oc1ccc(Cl)cc1 | 11.6 µM [falling, partial curve, poor fit] | – |
| COc1ccc(S(=O)(=O)N2CCCCCC2)cc1C(=O)N(C)Cc1ccco1 | 1.3 µM [rising, full curve, poor fit] | – |
| O=C(NCc1ccc(F)cc1)c1cccc2c1C(=O)c1ccc(N3CCC(Cc4ccccc4)CC3)cc1S2(=O)=O | 9.2 µM [rising, partial curve, poor fit] | – |
| CC(Oc1ccc(Br)cc1)c1nc2c3ccccc3nc(=S)n2[nH]1 (stereo not given) | 4.47 µM [rising, full curve, poor fit] | 0.631 µM [falling, partial curve, poor fit] |
| CCN1CCN(S(=O)(=O)c2ccc3c4c(cccc24)C(=O)N3CC)CC1 | 29.1 µM [rising, single point] | – |
| Cc1cccc(NC(=O)c2ccccc2NC(=O)c2ccccc2)n1 | 7.94 µM [falling, partial curve, poor fit] | – |
| COC(=O)c1c(N2C(=O)CC(Sc3ccccc3C(=O)O)C2=O)sc(C)c1C (stereo not given) | 2.51 µM [falling, full curve] | – |
| Nc1nnc(SCC(=O)Nc2ccc3c(c2)OCCO3)s1 | 1.84 µM [falling, full curve] | – |
| O=C(O)C1CCCCC1C(=O)Nc1nc(-c2ccc(Cl)s2)cs1 (stereo not given) | 14.1 µM [falling, partial curve, poor fit] | – |
| CCC(C)(C)NC(=O)C(c1cccnc1)N(C(=O)c1csnn1)c1ccccc1 (stereo not given) | 0.891 µM [falling, full curve, poor fit] | – |
| COc1cc(NC(=O)c2cccs2)c(C(=O)OCC(=O)NC(=O)NC(C)(C)C)cc1OC | 0.259 µM [falling, full curve, poor fit] | – |
| O=c1c(Cl)cc(Cl)nn1-c1ccccc1 | 23.1 µM [falling, partial curve] | – |
| Fc1ccccc1/C=N/Nc1nc2ccccc2o1 | 8.91 µM [falling, partial curve, poor fit] | – |
| Cc1cc(NC(=O)COc2ccccc2)n(-c2ccccc2)n1 | 7.94 µM [falling, partial curve] | – |
| COc1cc(CNc2ccc(N3CCN(C(C)=O)CC3)cc2)ccc1OCc1ccccc1 | 0.355 µM [rising, full curve, poor fit] | – |

| Compound | AC50 [1] | AC50 [2] |
| --- | --- | --- |
| NC(=O)CC(NC(=O)c1cccc(Br)c1)c1ccc(NC2CCCCCCCCCCC2)c([N+](=O)[O-])c1 (stereo not given) | 0.1 µM [falling, full curve, poor fit] | – |
| CC(C)(C)Nc1nc(-c2ccccn2)nc2ccccc12 | 12.6 µM [falling, partial curve, poor fit] | – |
| NNC(=O)c1ccc(Cn2cc(Cl)cn2)o1 | 3.16 µM [falling, partial curve, poor fit] | – |
| CC1=NN(c2ccc(C(=O)O)cc2)C(=O)/C1=C\c1ccc(OC(=O)c2cccs2)cc1 | 1.12 µM [falling, full curve] | – |
| O=Cc1c(-[n+]2ccccc2)nc([O-])n1-c1ccccc1 | 4.61 µM [rising, partial curve, poor fit] | – |
| O=C(CSc1nnc(C2CC2)n1CC1CCCO1)Nc1cccc(Cl)c1 (stereo not given) | 6.31 µM [rising, single point] | – |
| C[C@@H]1C[C@H]2[C@@H]3C[C@H](F)C4=CC(=O)C=C[C@]4(C)[C@@]3(F)[C@@H](O)C[C@]2(C)[C@@]1(O)C(=O)COC(=O)C(C)(C)C | 16.4 µM [rising, partial curve, poor fit] | – |
| O=C(O)CCCCc1nc2ccccc2s1 | 5.17 µM [rising, partial curve] | – |
| Cc1ccc(C)c(NS(=O)(=O)c2cc(Br)cnc2N)c1 | 15.8 µM [falling, partial curve, poor fit] | – |
| COc1cccc(NC(=O)CN(C)C(=O)CC2CCCCC2)c1 | 5.17 µM [rising, partial curve, poor fit] | – |
| O=[N+]([O-])c1ccc2nc(-c3ccc(Cl)cc3)[nH]c2c1 | 23.1 µM [falling, partial curve] | 25.9 µM [rising, partial curve, poor fit] |
| CC12CCC(C(=O)NCc3ccccc3Cl)(C(Br)C1=O)C2(C)C (stereo not given) | 29.1 µM [rising, partial curve, poor fit] | – |
| CC(=O)c1sc(NC(=O)c2cnc(Cl)c(Cl)c2)nc1C | 4.47 µM [falling, full curve, poor fit] | – |
| COCCCNCC(=O)Nc1sc(C)c(C)c1C(=O)OC | 29.1 µM [falling, single point] | – |
| Cn1c(=O)cc(OCCCC(=O)NCCC2=CCCCC2)c2ccccc21 | 5.01 µM [rising, full curve, poor fit] | – |
| Cn1c2ccccc2c2cc(/C=N/NC(=O)c3ccc(N)cc3)ccc21 | 3.55 µM [falling, partial curve, poor fit] | – |
| CC(=O)[C@@H]1[C@@H]2C(=O)N(c3ccc(F)c(Cl)c3)C(=O)[C@@H]2C2c3ccccc3C=CN21 (stereo not given in full) | 6.51 µM [falling, partial curve] | – |
| O=C(N/N=C/c1cccc([N+](=O)[O-])c1)c1c[nH]c2ccccc12 | 1.26 µM [rising, partial curve] | – |
| Cc1nn(-c2ccccc2)c(/N=C/c2ccc(O)cc2)c1-c1ccccc1 | 29.1 µM [falling, single point] | – |
| CCN1N=C(C)C=C(c2ccccc2)n2c1nc1ccccc12 | – | 7.08 µM [rising, partial curve, poor fit] |
| O=C(NCCc1ccccc1)c1ccc2c(c1)N(Cc1ccccc1Cl)C(=O)c1ccccc1S2 | 0.562 µM [rising, full curve, poor fit] | – |

Entries of single compounds as entered above.
C[C@@H]1C[C@H]2[C@@H]3C[C@H](F)C4=CC(=O)C=C[C@]4(C)[C@@]3(F)[C@@H](O)C[C@]2(C)[C@@]1(O)C(=O)COC(=O)C(C)(C)C reads AC50 [1]: 16.4 µM [rising, partial curve, poor fit]
Cn1c(=O)cc(OCCCC(=O)NCCC2=CCCCC2)c2ccccc21 reads AC50 [1]: 5.01 µM [rising, full curve, poor fit]
O=C(NCCc1ccccc1)c1ccc2c(c1)N(Cc1ccccc1Cl)C(=O)c1ccccc1S2 reads AC50 [1]: 0.562 µM [rising, full curve, poor fit]
CC(=O)[C@@H]1[C@@H]2C(=O)N(c3ccc(F)c(Cl)c3)C(=O)[C@@H]2C2c3ccccc3C=CN21 (stereo not given in full) reads AC50 [1]: 6.51 µM [falling, partial curve]

Later entries.

| Compound | AC50 [1] | AC50 [2] |
| --- | --- | --- |
| O=C(COC(=O)C1(c2cccc(F)c2)CCCC1)NCc1ccc2c(c1)OCO2 | 18.4 µM [falling, single point] | – |
| COc1ccc(C2=CC3=C(Br)C(=O)C(C)(OC(=O)c4ccco4)C(=O)C3=CO2)cc1 (stereo not given) | 7.08 µM [rising, partial curve, poor fit] | – |
| Cc1ccc(C)c(NC(=O)CCN2CCc3ccccc3C2)c1 | 20 µM [falling, single point] | – |
| Clc1nssc1=Nc1nncs1 | 29.1 µM [rising, single point] | – |
| COc1c(OC(C)=O)ccc(/C=C/c2ccc3ccccc3n2)c1[N+](=O)[O-] | 0.58 µM [rising, full curve] | – |
| c1ccc(-c2c[n+]3c(n2-c2ccccc2)SCC3)cc1 | 0.562 µM [rising, full curve, poor fit] | – |
| CC(C)CCC1(CCNC(C)c2cccs2)CCOC(C)(C)C1 (stereo not given) | 3.55 µM [falling, partial curve, poor fit] | – |
| O=C(Nc1ccncc1)c1ccc2c(c1)C(=O)N(C1CCCCC1)C2=O | 29.1 µM [rising, single point] | – |
| CCOCCn1ccc2c(OCC(=O)Nc3ccccc3OC)cccc2c1=O | 1.16 µM [falling, full curve] | – |
| CC(C)(C)C(=O)/C=c1\s/c(=C\c2ccc(-c3ccc([N+](=O)[O-])cc3)o2)c(=O)n1CC(=O)NC(N)=O | 0.1 µM [rising, full curve, poor fit] | – |
| CN(C(=O)c1cc(-c2ccccc2)on1)C1CCCCC1 | 10 µM [falling, partial curve] | – |
| Cn1c(N)c(C(C[N+](=O)[O-])c2c(F)cccc2Cl)c(=O)n(C)c1=O (stereo not given) | 35.5 µM [falling, single point] | 5.01 µM [rising, single point] |
| O=C(Nc1cccc(Cl)c1)N1CCOCC1 | 5.62 µM [rising, partial curve, poor fit] | – |
| C=C(C)CSc1nc(N)c2c(C)c(C)sc2n1 | 1.41 µM [rising, partial curve] | – |
| CC1(C)CSC(=NCc2ccccc2)N1C(=O)c1cccc([N+](=O)[O-])c1 | 2.91 µM [rising, partial curve, poor fit] | – |
| O=S(=O)(c1ccc2c(c1)CCCN2)N1CCCC1 | 2.06 µM [rising, partial curve] | – |
| COc1cc(CNCc2ccc(OC)c3ccccc23)cc(OC)c1OC | 7.94 µM [falling, partial curve] | – |
| COCc1cc(CN2CCCC2)c(O)c2ncccc12 | 0.891 µM [falling, full curve, poor fit] | – |
| CCO[C@H]1OC(C(=O)NC2CC2)=C[C@@H](c2c[nH]c3ccccc23)[C@@H]1CCCO | 3.16 µM [falling, single point] | – |
| CC(=O)N/C(=C\c1ccccc1)C(=O)Nc1ccccc1C | 12.6 µM [rising, partial curve, poor fit] | – |
